Measured data: PubChem BioAssay AID1508597 (Cure First, 2020)

- Purpose: 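Genes whose silencing sensitises or protects ovarian cancer cells against rucaparib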 (primary screen)
- Cell system: human ovarian carcinoma lines grown from tumours: OCI-P5x (papillary serous) and OCI-C5x (clear cell)
- Reagent: siRNA pool against human genes, 1.25 pmol siRNA per well
- Timing: 72 h or 96 h, depending on the cell culture
- Challenge: rucaparib 20 µM (about IC30) or vehicle, present until read-out
- Rucaparib or vehicle: Vehicle
- Cell line: OCI-P5x (serous)
- Read-out: 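ATP luminescence measured at 72 or 96 h according to the culture, then normalised and expressed as percent viability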
- Reading the numbers: viability, normalised: higher = more viable cells remaining
- Call rule: 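a well counts as a hit if its normalised viability is under 80 percent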
- Calls: active = viability under 80%; inactive = viability 80% or more
This is an unselected part of the about 2,100 reagents, in one setting of the screen. 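Calls flag viability under 80% in either arm, not effects specific to rucaparib; the reference for percent is not stated.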 Not given: the 100% reference.

| target gene | technical replicate | viability, normalised (%) | Call |
| --- | --- | --- | --- |
| INO80E (INO80 complex subunit E) | 1 | 69.9 | active |
| INO80E (INO80 complex subunit E) | 2 | 80.8 | inactive |
| INO80E (INO80 complex subunit E) | 3 | 92.8 | inactive |
| DNAJC1 (DnaJ heat shock protein family (Hsp40) member C1) | 1 | 52 | active |
| DNAJC1 (DnaJ heat shock protein family (Hsp40) member C1) | 2 | 54.3 | active |
| DNAJC1 (DnaJ heat shock protein family (Hsp40) member C1) | 3 | 60.3 | active |
| SLC1A3 | 1 | 54.6 | active |
| SLC1A3 | 2 | 69.8 | active |
| SLC1A3 | 3 | 63.3 | active |
| CERK (ceramide kinase) | 1 | 97.3 | inactive |
| CERK (ceramide kinase) | 2 | 83.3 | inactive |
| CERK (ceramide kinase) | 3 | 66.2 | active |
| CELF1 (CUGBP Elav-like family member 1) | 1 | 52.2 | active |
| CELF1 (CUGBP Elav-like family member 1) | 2 | 65 | active |
| CELF1 (CUGBP Elav-like family member 1) | 3 | 60 | active |
| TCF3 (transcription factor 3) | 1 | 57.3 | active |
| TCF3 (transcription factor 3) | 2 | 75.9 | active |
| TCF3 (transcription factor 3) | 3 | 73.4 | active |
| SUPT3H (SPT3 homolog, SAGA and STAGA complex component) | 1 | 40.1 | active |
| SUPT3H (SPT3 homolog, SAGA and STAGA complex component) | 2 | 66 | active |
| SUPT3H (SPT3 homolog, SAGA and STAGA complex component) | 3 | 65.5 | active |
| RAD17 (RAD17 checkpoint clamp loader component) | 1 | 63.8 | active |
| RAD17 (RAD17 checkpoint clamp loader component) | 2 | 67.2 | active |
| RAD17 (RAD17 checkpoint clamp loader component) | 3 | 53.6 | active |
| BLK (BLK proto-oncogene, Src family tyrosine kinase) | 1 | 64.6 | active |
| BLK (BLK proto-oncogene, Src family tyrosine kinase) | 2 | 56.2 | active |
| BLK (BLK proto-oncogene, Src family tyrosine kinase) | 3 | 61.2 | active |
| ATAT1 (alpha tubulin acetyltransferase 1) | 1 | 81.9 | inactive |
| ATAT1 (alpha tubulin acetyltransferase 1) | 2 | 77.7 | active |
| ATAT1 (alpha tubulin acetyltransferase 1) | 3 | 73.7 | active |
| ELP4 (elongator acetyltransferase complex subunit 4) | 1 | 55.5 | active |
| ELP4 (elongator acetyltransferase complex subunit 4) | 2 | 61.1 | active |
| ELP4 (elongator acetyltransferase complex subunit 4) | 3 | 74.9 | active |
| CAMK1D (calcium/calmodulin dependent protein kinase ID) | 1 | 96.3 | inactive |
| CAMK1D (calcium/calmodulin dependent protein kinase ID) | 2 | 92.2 | inactive |
| CAMK1D (calcium/calmodulin dependent protein kinase ID) | 3 | 97.6 | inactive |
| SUPT7L (SPT7 like, STAGA complex subunit gamma) | 1 | 61.1 | active |
| SUPT7L (SPT7 like, STAGA complex subunit gamma) | 2 | 66.9 | active |
| SUPT7L (SPT7 like, STAGA complex subunit gamma) | 3 | 62.5 | active |
| NUAK2 (NUAK family kinase 2) | 1 | 56.1 | active |
| NUAK2 (NUAK family kinase 2) | 2 | 55.8 | active |
| NUAK2 (NUAK family kinase 2) | 3 | 62.7 | active |
| ERRFI1 (ERBB receptor feedback inhibitor 1) | 1 | 59.5 | active |
| ERRFI1 (ERBB receptor feedback inhibitor 1) | 2 | 57.5 | active |
| ERRFI1 (ERBB receptor feedback inhibitor 1) | 3 | 58.6 | active |
| UHRF2 (ubiquitin like with PHD and ring finger domains 2) | 1 | 73.8 | active |
| UHRF2 (ubiquitin like with PHD and ring finger domains 2) | 2 | 96.7 | inactive |
| UHRF2 (ubiquitin like with PHD and ring finger domains 2) | 3 | 75.5 | active |
| KMT2E (lysine methyltransferase 2E (inactive)) | 1 | 68.3 | active |
| KMT2E (lysine methyltransferase 2E (inactive)) | 2 | 89.7 | inactive |
| KMT2E (lysine methyltransferase 2E (inactive)) | 3 | 85.2 | inactive |
| MED19 (mediator complex subunit 19) | 1 | 59.1 | active |
| MED19 (mediator complex subunit 19) | 2 | 58.5 | active |
| MED19 (mediator complex subunit 19) | 3 | 63 | active |
| SP140 (SP140 nuclear body protein) | 1 | 59.1 | active |
| SP140 (SP140 nuclear body protein) | 2 | 48.9 | active |
| SP140 (SP140 nuclear body protein) | 3 | 61.6 | active |

7 entries from above, ordered by “viability, normalised (%)”, lowest first:
| target gene | technical replicate | viability, normalised (%) | Call |
| --- | --- | --- | --- |
| CELF1 (CUGBP Elav-like family member 1) | 1 | 52.2 | active |
| TCF3 (transcription factor 3) | 1 | 57.3 | active |
| CELF1 (CUGBP Elav-like family member 1) | 3 | 60 | active |
| CELF1 (CUGBP Elav-like family member 1) | 2 | 65 | active |
| CERK (ceramide kinase) | 3 | 66.2 | active |
| TCF3 (transcription factor 3) | 2 | 75.9 | active |
| CERK (ceramide kinase) | 2 | 83.3 | inactive |
